Measured values published in US20210047432A1.
These are yes or no findings as the source states them, for the method shown. Some entries that bind do so weakly or less than the wild type.

Chains of the proteins cited; added tags and fusions are not shown. Lines headed by an entry give the natural chain unless they say otherwise; changes in a name come on top. A line that says so, or that is headed by a name, gives the form on record, which may keep a tag or linker. Residues count along the entry.
UniProt P12314, residues 16-374: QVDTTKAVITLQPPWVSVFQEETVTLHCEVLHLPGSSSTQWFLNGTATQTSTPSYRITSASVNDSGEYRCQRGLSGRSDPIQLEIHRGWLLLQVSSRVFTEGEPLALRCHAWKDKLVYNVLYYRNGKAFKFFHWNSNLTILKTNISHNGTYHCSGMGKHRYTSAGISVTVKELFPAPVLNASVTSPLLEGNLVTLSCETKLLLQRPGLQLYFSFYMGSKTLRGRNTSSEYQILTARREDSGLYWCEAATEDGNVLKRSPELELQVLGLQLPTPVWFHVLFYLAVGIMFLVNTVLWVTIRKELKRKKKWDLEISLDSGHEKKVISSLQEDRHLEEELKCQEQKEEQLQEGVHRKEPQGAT
human FcγRIIA (H131) (P12318, residues 34-317): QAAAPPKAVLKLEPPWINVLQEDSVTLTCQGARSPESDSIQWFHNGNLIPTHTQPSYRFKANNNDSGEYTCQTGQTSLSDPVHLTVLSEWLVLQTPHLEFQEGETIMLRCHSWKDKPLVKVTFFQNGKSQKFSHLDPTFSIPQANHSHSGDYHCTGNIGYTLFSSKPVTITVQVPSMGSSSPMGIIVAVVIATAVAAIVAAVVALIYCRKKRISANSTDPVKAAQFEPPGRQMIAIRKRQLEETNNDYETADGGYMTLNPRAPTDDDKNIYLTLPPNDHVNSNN
human FcγRIIA(R131) (P12318, form named): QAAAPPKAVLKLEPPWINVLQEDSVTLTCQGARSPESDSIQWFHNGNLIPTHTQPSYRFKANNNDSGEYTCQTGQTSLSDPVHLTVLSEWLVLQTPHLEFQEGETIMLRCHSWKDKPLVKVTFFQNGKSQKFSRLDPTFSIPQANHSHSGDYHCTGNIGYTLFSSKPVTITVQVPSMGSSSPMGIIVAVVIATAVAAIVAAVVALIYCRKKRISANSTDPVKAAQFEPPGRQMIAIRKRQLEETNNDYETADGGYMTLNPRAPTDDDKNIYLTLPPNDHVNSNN
human FcγRIIIA(F176) (P08637, residues 17-254): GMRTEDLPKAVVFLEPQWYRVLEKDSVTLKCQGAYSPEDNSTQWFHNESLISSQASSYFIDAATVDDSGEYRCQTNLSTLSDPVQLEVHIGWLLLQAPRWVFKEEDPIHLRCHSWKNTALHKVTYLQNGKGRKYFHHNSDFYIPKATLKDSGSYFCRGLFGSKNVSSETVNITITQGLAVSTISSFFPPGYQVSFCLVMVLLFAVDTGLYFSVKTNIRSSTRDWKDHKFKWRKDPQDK
human FcγRIIIA(V176) (P08637, form named): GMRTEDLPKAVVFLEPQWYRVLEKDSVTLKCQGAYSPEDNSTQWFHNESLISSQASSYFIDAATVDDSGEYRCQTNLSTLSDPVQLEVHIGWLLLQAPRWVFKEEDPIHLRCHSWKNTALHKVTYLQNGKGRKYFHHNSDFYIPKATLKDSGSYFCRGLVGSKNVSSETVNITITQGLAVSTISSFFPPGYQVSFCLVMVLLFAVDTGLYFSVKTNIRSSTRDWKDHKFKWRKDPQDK
human FcγRIIIB(NA1) (O75015, form named): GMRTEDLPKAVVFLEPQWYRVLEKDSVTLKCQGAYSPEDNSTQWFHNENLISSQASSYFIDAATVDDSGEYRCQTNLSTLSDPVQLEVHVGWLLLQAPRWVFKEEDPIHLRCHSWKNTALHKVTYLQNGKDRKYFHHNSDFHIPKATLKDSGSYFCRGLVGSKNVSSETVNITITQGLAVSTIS
human FcγRIIIB(NA2) (O75015, form named): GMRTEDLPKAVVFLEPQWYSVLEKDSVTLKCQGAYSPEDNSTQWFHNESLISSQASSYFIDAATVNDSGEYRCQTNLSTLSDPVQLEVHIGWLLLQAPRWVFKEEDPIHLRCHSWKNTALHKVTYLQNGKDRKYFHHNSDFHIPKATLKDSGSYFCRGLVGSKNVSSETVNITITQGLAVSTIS
human FcγRIIIB(SH) (O75015, form named): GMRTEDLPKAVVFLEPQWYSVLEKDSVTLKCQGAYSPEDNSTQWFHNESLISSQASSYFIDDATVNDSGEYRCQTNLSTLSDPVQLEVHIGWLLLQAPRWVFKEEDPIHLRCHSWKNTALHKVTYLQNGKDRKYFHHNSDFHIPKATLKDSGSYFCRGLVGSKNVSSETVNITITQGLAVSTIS
UniProt P04054: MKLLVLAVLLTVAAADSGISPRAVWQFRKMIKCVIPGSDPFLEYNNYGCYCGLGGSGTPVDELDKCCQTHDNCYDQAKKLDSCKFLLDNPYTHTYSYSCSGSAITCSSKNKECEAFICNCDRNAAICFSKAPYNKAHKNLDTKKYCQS

Columns and labels:
Assay in all cases: flow cytometry, antibody-antigen immune complex on CHO cells expressing the receptor
human FcγRI (human) = human FcγRI (human) (UniProt P12314)
[1] = biological target: human FcγRIIA (H131) (human) (UniProt P12318)
[2] = biological target: human FcγRIIA(R131) (human) (UniProt P12318)
[3] = biological target: human FcγRIIIA(F176) (human) (UniProt P08637)
[4] = biological target: human FcγRIIIA(V176) (human) (UniProt P08637)
[5] = biological target: human FcγRIIIB(NA1) (human) (UniProt O75015)
[6] = biological target: human FcγRIIIB(NA2) (human) (UniProt O75015)
[7] = biological target: human FcγRIIIB(SH) (human) (UniProt O75015)

binding (human FcγRI (human)): binds
binding [1]: binds
binding [2]: binds
binding [3]: binds
binding [4]: binds
binding [5]: binds
binding [6]: binds
binding [7]: binds
Substance: immune complex of #2B with sPLA2-GIB (from UniProt P04054 23-148)
